From paper PMC11789580 come the findings set out here.

No constants are given. Whether binding was seen depends on the method and setting. In cells and extracts the contact can be indirect. Some entries that bind do so weakly or less than the wild type. Where a sequence is shown, tags or fusion partners need not be part of it.

One assay has as its target T1, MORF2-nLUC (Arabidopsis) (UniProt O22793).
T1 sequence: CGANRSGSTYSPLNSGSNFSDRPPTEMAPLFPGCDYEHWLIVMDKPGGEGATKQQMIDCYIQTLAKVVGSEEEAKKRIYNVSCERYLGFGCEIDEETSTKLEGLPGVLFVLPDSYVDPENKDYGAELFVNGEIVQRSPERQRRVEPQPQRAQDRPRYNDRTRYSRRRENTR
Description: split reporter; LCI of MORF2-nLUC with MORF-cLUC fusions in tobacco leaf epidermal cells, with RPOTp or with OZ1 (control) co-expressed / in the presence or absence of RPOTp.

The target in the next assay is T2, MORF2-FLAG (Arabidopsis) (UniProt O22793).
T2 sequence: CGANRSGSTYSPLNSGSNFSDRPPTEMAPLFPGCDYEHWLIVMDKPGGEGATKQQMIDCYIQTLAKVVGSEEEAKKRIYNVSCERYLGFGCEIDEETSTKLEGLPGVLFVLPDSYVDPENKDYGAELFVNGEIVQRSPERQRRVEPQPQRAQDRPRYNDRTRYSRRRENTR
Description: co-IP; MORF2-FLAG with HA-tagged MORF proteins, with or without RPOTp-GFP; anti-FLAG magnetic beads; blots with anti-HA, anti-FLAG or anti-GFP.

For the next assay, the target named is T3, RPOTp-FLAG (Arabidopsis) (UniProt O24600).
T3 sequence: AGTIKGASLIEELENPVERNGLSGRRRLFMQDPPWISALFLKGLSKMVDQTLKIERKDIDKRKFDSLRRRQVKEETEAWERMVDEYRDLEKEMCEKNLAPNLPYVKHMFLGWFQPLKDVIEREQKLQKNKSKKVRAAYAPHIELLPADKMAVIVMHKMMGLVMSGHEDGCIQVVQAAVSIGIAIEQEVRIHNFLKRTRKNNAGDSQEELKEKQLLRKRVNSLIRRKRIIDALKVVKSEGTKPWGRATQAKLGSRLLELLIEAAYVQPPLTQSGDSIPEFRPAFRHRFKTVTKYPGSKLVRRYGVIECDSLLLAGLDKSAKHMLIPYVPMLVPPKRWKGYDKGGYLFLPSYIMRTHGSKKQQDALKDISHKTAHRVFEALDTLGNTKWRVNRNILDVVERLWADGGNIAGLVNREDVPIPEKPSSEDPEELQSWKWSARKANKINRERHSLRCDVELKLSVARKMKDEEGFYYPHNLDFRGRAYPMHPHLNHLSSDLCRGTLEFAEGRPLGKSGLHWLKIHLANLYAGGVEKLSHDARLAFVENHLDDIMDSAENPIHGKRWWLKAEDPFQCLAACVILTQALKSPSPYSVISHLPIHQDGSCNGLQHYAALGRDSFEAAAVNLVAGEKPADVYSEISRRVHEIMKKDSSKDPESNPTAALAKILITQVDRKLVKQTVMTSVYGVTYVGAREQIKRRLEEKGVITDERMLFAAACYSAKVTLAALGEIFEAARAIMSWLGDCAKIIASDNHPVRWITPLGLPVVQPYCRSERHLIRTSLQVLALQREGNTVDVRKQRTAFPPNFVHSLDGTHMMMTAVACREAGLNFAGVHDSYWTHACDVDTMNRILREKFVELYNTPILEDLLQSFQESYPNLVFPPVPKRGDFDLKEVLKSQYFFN
Description: co-IP; RPOTp-FLAG and HA-tagged proteins co-infiltrated into Nicotiana benthamiana leaves; lysate on anti-FLAG M2 magnetic beads 2 h at 4 °C, eluted with 3xFLAG peptide; blots with anti-FLAG and anti-HA.

The next assay deals with T4, RPOTp-nLUC (Arabidopsis) (UniProt O24600).
T4 sequence: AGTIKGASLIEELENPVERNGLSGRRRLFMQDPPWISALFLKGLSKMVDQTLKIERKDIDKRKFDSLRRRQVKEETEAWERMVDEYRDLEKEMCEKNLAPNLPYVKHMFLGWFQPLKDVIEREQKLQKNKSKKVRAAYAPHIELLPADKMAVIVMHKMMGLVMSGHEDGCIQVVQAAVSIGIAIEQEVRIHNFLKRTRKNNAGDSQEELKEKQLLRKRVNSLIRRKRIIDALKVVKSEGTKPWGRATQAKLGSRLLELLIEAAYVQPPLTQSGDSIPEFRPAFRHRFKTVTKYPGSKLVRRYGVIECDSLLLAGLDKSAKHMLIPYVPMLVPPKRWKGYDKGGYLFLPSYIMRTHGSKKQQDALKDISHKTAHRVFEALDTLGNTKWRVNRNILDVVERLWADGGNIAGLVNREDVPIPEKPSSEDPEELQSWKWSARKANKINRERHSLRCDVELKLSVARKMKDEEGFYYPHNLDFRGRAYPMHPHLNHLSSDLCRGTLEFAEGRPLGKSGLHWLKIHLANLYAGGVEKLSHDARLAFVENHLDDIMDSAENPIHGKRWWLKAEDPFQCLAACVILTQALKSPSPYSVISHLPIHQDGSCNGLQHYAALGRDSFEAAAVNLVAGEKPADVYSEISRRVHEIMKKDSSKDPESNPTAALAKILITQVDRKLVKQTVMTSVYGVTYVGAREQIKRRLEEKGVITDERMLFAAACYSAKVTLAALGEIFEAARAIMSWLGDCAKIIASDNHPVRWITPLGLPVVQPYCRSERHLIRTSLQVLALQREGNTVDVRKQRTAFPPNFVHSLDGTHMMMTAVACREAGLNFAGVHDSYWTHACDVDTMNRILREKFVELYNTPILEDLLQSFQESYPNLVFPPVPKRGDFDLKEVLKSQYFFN
In words: split reporter; firefly luciferase complementation imaging (LCI): nLUC and cLUC fusions co-infiltrated into 4-week-old Nicotiana benthamiana leaves, 3 days, 1 mM D-luciferin, CCD camera.

B1: RPOTp (co-expressed as third protein in the LCI assay of MORF dimerization) (enzyme, UniProt O24600 96-993)
chain: AGTIKGASLIEELENPVERNGLSGRRRLFMQDPPWISALFLKGLSKMVDQTLKIERKDIDKRKFDSLRRRQVKEETEAWERMVDEYRDLEKEMCEKNLAPNLPYVKHMFLGWFQPLKDVIEREQKLQKNKSKKVRAAYAPHIELLPADKMAVIVMHKMMGLVMSGHEDGCIQVVQAAVSIGIAIEQEVRIHNFLKRTRKNNAGDSQEELKEKQLLRKRVNSLIRRKRIIDALKVVKSEGTKPWGRATQAKLGSRLLELLIEAAYVQPPLTQSGDSIPEFRPAFRHRFKTVTKYPGSKLVRRYGVIECDSLLLAGLDKSAKHMLIPYVPMLVPPKRWKGYDKGGYLFLPSYIMRTHGSKKQQDALKDISHKTAHRVFEALDTLGNTKWRVNRNILDVVERLWADGGNIAGLVNREDVPIPEKPSSEDPEELQSWKWSARKANKINRERHSLRCDVELKLSVARKMKDEEGFYYPHNLDFRGRAYPMHPHLNHLSSDLCRGTLEFAEGRPLGKSGLHWLKIHLANLYAGGVEKLSHDARLAFVENHLDDIMDSAENPIHGKRWWLKAEDPFQCLAACVILTQALKSPSPYSVISHLPIHQDGSCNGLQHYAALGRDSFEAAAVNLVAGEKPADVYSEISRRVHEIMKKDSSKDPESNPTAALAKILITQVDRKLVKQTVMTSVYGVTYVGAREQIKRRLEEKGVITDERMLFAAACYSAKVTLAALGEIFEAARAIMSWLGDCAKIIASDNHPVRWITPLGLPVVQPYCRSERHLIRTSLQVLALQREGNTVDVRKQRTAFPPNFVHSLDGTHMMMTAVACREAGLNFAGVHDSYWTHACDVDTMNRILREKFVELYNTPILEDLLQSFQESYPNLVFPPVPKRGDFDLKEVLKSQYFFN
Turning to B1, in the assay with MORF2-nLUC (Arabidopsis), the binding result was “binds”.

B2: RPOTp-GFP (enzyme, UniProt O24600 96-993)
chain: AGTIKGASLIEELENPVERNGLSGRRRLFMQDPPWISALFLKGLSKMVDQTLKIERKDIDKRKFDSLRRRQVKEETEAWERMVDEYRDLEKEMCEKNLAPNLPYVKHMFLGWFQPLKDVIEREQKLQKNKSKKVRAAYAPHIELLPADKMAVIVMHKMMGLVMSGHEDGCIQVVQAAVSIGIAIEQEVRIHNFLKRTRKNNAGDSQEELKEKQLLRKRVNSLIRRKRIIDALKVVKSEGTKPWGRATQAKLGSRLLELLIEAAYVQPPLTQSGDSIPEFRPAFRHRFKTVTKYPGSKLVRRYGVIECDSLLLAGLDKSAKHMLIPYVPMLVPPKRWKGYDKGGYLFLPSYIMRTHGSKKQQDALKDISHKTAHRVFEALDTLGNTKWRVNRNILDVVERLWADGGNIAGLVNREDVPIPEKPSSEDPEELQSWKWSARKANKINRERHSLRCDVELKLSVARKMKDEEGFYYPHNLDFRGRAYPMHPHLNHLSSDLCRGTLEFAEGRPLGKSGLHWLKIHLANLYAGGVEKLSHDARLAFVENHLDDIMDSAENPIHGKRWWLKAEDPFQCLAACVILTQALKSPSPYSVISHLPIHQDGSCNGLQHYAALGRDSFEAAAVNLVAGEKPADVYSEISRRVHEIMKKDSSKDPESNPTAALAKILITQVDRKLVKQTVMTSVYGVTYVGAREQIKRRLEEKGVITDERMLFAAACYSAKVTLAALGEIFEAARAIMSWLGDCAKIIASDNHPVRWITPLGLPVVQPYCRSERHLIRTSLQVLALQREGNTVDVRKQRTAFPPNFVHSLDGTHMMMTAVACREAGLNFAGVHDSYWTHACDVDTMNRILREKFVELYNTPILEDLLQSFQESYPNLVFPPVPKRGDFDLKEVLKSQYFFN
As to B2, in the assay with MORF2-FLAG (Arabidopsis), the binding entry is “binds”.

B3: MORF9-HA (protein, UniProt Q9LPZ1 59-232)
chain: AATVDSDYSSKRSNSNEQRETIMLPGCDYNHWLIVMEFPKDPAPSRDQMIDTYLNTLATVLGSMEEAKKNMYAFSTTTYTGFQCTIDEETSEKFKGLPGVLWVLPDSYIDVKNKDYGGDKYINGEIIPCTYPTYQPKQRNNTKYQSKRYERKRDGPPPPEQRKPRQEPAASDSS
As to B3, the binding entry with MORF2-FLAG (Arabidopsis) and in the assay with RPOTp-FLAG (Arabidopsis) was “binds” in each case.

B4: MORF9-cLUC (protein, UniProt Q9LPZ1 59-232)
chain: AATVDSDYSSKRSNSNEQRETIMLPGCDYNHWLIVMEFPKDPAPSRDQMIDTYLNTLATVLGSMEEAKKNMYAFSTTTYTGFQCTIDEETSEKFKGLPGVLWVLPDSYIDVKNKDYGGDKYINGEIIPCTYPTYQPKQRNNTKYQSKRYERKRDGPPPPEQRKPRQEPAASDSS
As to B4, the binding entry in the assay with MORF2-nLUC (Arabidopsis) and with RPOTp-nLUC (Arabidopsis) was “binds” throughout.

B5: MORF2-cLUC (protein, UniProt O22793 49-219)
chain: CGANRSGSTYSPLNSGSNFSDRPPTEMAPLFPGCDYEHWLIVMDKPGGEGATKQQMIDCYIQTLAKVVGSEEEAKKRIYNVSCERYLGFGCEIDEETSTKLEGLPGVLFVLPDSYVDPENKDYGAELFVNGEIVQRSPERQRRVEPQPQRAQDRPRYNDRTRYSRRRENTR
B5: the binding entry with MORF2-nLUC (Arabidopsis) and in the assay with RPOTp-nLUC (Arabidopsis) was “binds” each time.
